Drawing on the supplement of paper PMC7024190, this text covers log for 16 compounds.

Each structure is given as a SMILES string. Where a name gives a salt, the structure may show the parent alone. The list shows a part of the results. Repeats in this data set agree poorly, so a single value says little.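 Human embryonic kidney cells were transiently transfected with a plasmid bearing a Renilla luciferase gene under the HSV-TK promoter. This first-round screen tests roughly ten thousand compounds for ones that increase reporter output.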

This experiment relates to HEK 293FT. Kind of experiment: log relative Renilla luciferase luminescence (reporter expression vs reference, reference not stated) (log (base not stated)); higher = higher recombinant reporter expression. As to conditions: 10 µM; time after transfection 48 h.
Turning to `C1COC(NC(C2CC2)C2CC2)=N1` [Rilmenidine hemifumarate], the log worked out at 0.101.
`O=C(OCCN1CCCCC1)c1c[nH]c2ccccc12`: the log came out at 0.0219.
Regarding `O=C(O)C1=CCCNC1` [Guvacine hydrochloride], the log is -0.191.
For `COc1cc2ncnc(Nc3ccc(Cl)cc3F)c2cc1OC`, the log is -0.113.
Regarding `COC1(C2=NCCN2)COc2ccccc2O1` (stereo unspecified), the log is -0.0416.
The value for `O=C(/C=C/c1ccc(O)c(O)c1)OCCc1ccccc1` [Caffeic acid phenethyl ester] was 0.0875.
As for `CCC(=O)NC1Cc2ccccc2C(c2ccccc2)C1` (stereo unspecified), the figure is -0.0054; as for `O=c1[nH]ccc2c(S(=O)(=O)N3CCCNCC3)cccc12` [HA 1100 hydrochloride], -0.141.
As for `CC#C[C@]1(O)CC[C@H]2[C@@H]3CCC4=CC(=O)CCC4=C3[C@@H](c3ccc(N(C)C)cc3)C[C@@]21C` [Mifepristone], the log is 0.0238.
On to `COc1cccc(/C=N/N=C/c2cccc(OC)c2)c1`, for which the log turned out to be 0.163.
In the case of `CN(C)C(=O)C(=O)c1cn(C)c2cc(Cl)c(C(=O)N3CCC(Cc4ccc(F)cc4)CC3)cc12`, the log is -0.271.
As for `COc1ccc(NC(=O)c2ccc(-c3ccc(-c4noc(C)n4)cc3C)cc2)cc1OCCN(C)C`, the figure is -0.0536; as for `Cc1cc(NC(=O)Nc2ccc(N(C)C)cc2)c2cc(F)cc(F)c2n1`, 0.00349.
Turning to `CCCc1c(OCC(O)COc2ccc3c(=O)cc(C(=O)O)oc3c2CCC)ccc(C(C)=O)c1O` (stereo unspecified), the log stood at 0.0191.
For `N#C/C(=C\c1ccc(O)c(O)c1)C(=O)OCCc1cccs1`, the log amounted to 0.0863.
For the compound `CN(C(=O)c1c(O)c2ccccc2n(C)c1=O)c1ccccc1` [Linomide], the log is -0.126.
